These are yes or no findings as the source states them, for the method shown. In cells and extracts the contact can be indirect. A result given as binding can be weak or reduced; the word gives no strength.
How the values were obtained:
[1] = target: endogenous PIP5Kα (human (endogenous in HEK293)) (UniProt Q99755); assay: co-IP; endogenous proteins, intact HEK293 cells; lysate (~1.5 mg) with 5 μg anti‐PIP5Kα or anti‐NEDD4 antibody 4 hours at 4°C, protein G agarose 2 hours; control IgG
[2] = target: endogenous NEDD4 (human (endogenous in HEK293)) (UniProt P46934); assay: as above

Chains of the proteins cited; added tags and fusions are not shown. Lines headed by an entry give the natural chain unless they say otherwise; changes in a name come on top.
UniProt Q99755: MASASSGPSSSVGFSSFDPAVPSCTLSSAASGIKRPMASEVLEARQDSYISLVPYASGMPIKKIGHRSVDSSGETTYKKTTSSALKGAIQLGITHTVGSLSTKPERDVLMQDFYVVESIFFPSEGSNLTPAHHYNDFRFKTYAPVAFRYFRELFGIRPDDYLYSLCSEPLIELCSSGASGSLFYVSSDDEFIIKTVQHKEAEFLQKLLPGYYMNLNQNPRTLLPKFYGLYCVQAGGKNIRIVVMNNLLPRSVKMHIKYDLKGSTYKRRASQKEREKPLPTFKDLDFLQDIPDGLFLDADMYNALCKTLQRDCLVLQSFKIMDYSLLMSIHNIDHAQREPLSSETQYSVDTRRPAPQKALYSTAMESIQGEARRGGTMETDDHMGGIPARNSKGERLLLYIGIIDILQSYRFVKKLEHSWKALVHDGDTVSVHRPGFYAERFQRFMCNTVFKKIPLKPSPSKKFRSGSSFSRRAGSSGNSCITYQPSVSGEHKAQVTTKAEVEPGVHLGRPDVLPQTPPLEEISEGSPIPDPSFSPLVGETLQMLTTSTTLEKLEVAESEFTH
UniProt P46934: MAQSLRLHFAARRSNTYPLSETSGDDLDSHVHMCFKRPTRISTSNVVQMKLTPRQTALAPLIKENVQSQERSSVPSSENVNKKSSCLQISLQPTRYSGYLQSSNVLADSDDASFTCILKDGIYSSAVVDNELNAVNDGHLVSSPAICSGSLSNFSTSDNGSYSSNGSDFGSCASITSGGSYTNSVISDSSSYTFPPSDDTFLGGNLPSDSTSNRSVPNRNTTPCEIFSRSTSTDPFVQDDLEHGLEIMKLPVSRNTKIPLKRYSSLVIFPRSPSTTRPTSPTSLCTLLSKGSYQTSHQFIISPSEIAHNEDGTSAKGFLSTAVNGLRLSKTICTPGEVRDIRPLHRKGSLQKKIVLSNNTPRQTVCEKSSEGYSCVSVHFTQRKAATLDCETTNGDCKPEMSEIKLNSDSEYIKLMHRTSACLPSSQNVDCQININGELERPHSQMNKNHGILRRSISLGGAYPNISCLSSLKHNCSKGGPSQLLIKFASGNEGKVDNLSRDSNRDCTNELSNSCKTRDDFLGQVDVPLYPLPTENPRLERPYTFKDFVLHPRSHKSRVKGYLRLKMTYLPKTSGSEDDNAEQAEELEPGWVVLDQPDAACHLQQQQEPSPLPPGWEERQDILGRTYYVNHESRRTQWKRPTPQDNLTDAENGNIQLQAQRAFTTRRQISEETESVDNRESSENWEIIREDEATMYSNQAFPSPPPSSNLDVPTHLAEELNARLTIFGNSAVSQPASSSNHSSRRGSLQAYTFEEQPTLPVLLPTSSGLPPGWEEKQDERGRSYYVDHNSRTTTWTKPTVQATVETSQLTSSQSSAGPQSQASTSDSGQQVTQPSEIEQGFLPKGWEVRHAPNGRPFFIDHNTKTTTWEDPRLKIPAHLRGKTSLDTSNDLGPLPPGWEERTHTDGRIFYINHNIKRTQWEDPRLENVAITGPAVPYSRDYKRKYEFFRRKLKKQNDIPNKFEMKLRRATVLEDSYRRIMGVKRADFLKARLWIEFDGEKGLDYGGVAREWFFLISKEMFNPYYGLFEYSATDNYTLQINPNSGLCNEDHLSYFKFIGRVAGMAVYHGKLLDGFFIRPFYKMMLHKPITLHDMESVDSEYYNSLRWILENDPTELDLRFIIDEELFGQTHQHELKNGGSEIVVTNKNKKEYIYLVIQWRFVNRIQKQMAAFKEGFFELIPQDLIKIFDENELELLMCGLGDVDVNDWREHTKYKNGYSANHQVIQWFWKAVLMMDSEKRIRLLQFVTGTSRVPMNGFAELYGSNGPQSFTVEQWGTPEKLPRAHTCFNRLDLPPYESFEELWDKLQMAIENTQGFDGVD

Row | binding [1] | binding [2] | Substance
1 | binds |  | endogenous NEDD4 (from UniProt P46934-4) (enzyme)
2 |  | binds | endogenous PIP5Kα (from UniProt Q99755 1-562)

Source: publication PMC6111810
